Among the data in article doi:10.1101/2021.07.16.452648 are binding values, retold here.

Sequences of proteins named here, by UniProt entry; tags and fusion partners are left off. Residues count along the entry.
UniProt P08195, residues 102-630: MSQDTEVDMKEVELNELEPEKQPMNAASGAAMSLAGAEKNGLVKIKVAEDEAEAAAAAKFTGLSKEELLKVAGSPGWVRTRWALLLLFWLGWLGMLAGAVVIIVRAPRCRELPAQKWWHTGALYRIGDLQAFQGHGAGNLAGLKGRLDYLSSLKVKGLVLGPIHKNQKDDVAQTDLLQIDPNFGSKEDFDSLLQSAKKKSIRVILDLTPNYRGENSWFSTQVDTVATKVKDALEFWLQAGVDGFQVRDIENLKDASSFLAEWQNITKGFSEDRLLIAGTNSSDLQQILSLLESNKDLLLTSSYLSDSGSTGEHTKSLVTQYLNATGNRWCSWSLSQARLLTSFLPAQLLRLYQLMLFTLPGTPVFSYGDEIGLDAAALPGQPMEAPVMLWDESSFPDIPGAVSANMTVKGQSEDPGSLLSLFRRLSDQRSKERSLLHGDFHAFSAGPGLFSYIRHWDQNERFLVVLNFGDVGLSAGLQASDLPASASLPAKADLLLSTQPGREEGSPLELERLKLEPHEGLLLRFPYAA

These are yes or no findings as the source states them, for the method shown. In cells and extracts the contact can be indirect. Some entries that bind do so weakly or less than the wild type. Tags and fused reporters may be left off the sequences shown.

For experiment [1], the target named is T1, cysteine string protein-α (CSPα) WT, FLAG- and SBP-tagged (UniProt Q9H3Z4).
T1 sequence: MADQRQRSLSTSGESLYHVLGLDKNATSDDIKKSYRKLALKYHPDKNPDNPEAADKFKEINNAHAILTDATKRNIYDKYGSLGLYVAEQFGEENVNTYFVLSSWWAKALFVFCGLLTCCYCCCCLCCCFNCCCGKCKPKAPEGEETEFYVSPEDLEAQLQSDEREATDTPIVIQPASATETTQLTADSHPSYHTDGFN
Nature of the experiment: co-IP.

The target in experiment [2] is CD98hc::GFP (GFP tag at the endogenous CD98hc locus) (human (endogenous in HEK293T)) (UniProt P08195). The experiment can be described thus: co-IP.

Take “CD98hc (endogenous) (from UniProt P08195 1-529)”: the binding entry in experiment [1] is “binds”.

B1: CSPα WT transfected into CD98hc::GFP cells (protein, UniProt Q9H3Z4 1-198)
chain: MADQRQRSLSTSGESLYHVLGLDKNATSDDIKKSYRKLALKYHPDKNPDNPEAADKFKEINNAHAILTDATKRNIYDKYGSLGLYVAEQFGEENVNTYFVLSSWWAKALFVFCGLLTCCYCCCCLCCCFNCCCGKCKPKAPEGEETEFYVSPEDLEAQLQSDEREATDTPIVIQPASATETTQLTADSHPSYHTDGFN
Regarding B1, the binding entry in experiment [2] is on record as “binds”.
